Measurements: article PMC6638986
Results are given in words; binding and its absence hold for the method and conditions named. In cells and extracts the contact can be indirect. These calls come from enrichment with a bait or labelling near it, and not all partners need be listed.

B1: Pab1 (C. albicans), endogenous (protein, UniProt Q5AI15 1-629)
chain: MSAAETNQLQESMEKLNIGSTTEEQSAAAATTTADQSAEEQGESSGVAENSASLYVGELNPSVNEATLFEIFSPIGQVSSIRVCRDAVSKKSLGYAYVNYHKYEDGEKAIEELNYNPIEGRPCRIMWSQRDPSARRSGDGNIFIKNLHPAIDNKALHDTFSAFGKILSCKVATDEFGQSKCFGFVHYETAEAAEAAIENVNGMLLNDREVFVGKHISKKDRESKFEEMKANFTNIYVKNIDLNYSEESFEKLFSPFGKITSIYLEKDQDGKSKGFGFVNFEDHESAVKAVEELNDKEINGQKIYVGRAQKKRERLEELKKQYEAVRLEKLAKYQGVNLFVKNLDDTIDSEKLEEEFKPFGTITSAKVMVDEAGKSKGFGFVCFTTPEEATKAITEMNTRMINGKPLYVALAQRKDVRRSQLEQQIQARNQMRMQNAAAGGLPGQFIPPMFYGQQGFFPPNGRGNAPYPGPNPQMMMRGRGQPFPEQWPRPGPNGQPVPVYGIPPQFQQDFNGQNMRPQQQQQQQPRGGYYPNRNQTSKRDLAAIISSVPQDQQKRILGEELYPKIVATGKAQEPEAAGKITGMMLGLENQEILDLLDDDELFNNHFEDALTAFEEYKKSEAAGNAEEQA
B2: Kre30 (C. albicans), endogenous (protein, UniProt Q5A2T2 1-609)
chain: MSISASKAKREQKRLEREAKKAAVGKSTKKTKKQAEKDAAEDEVEGAEEQIAKMKLQTDEHGLSDRVTTGVLESLETSRDIKLSSVSLLFHGKVLIQDSTLELNYGRRYGLLGENGCGKSTLMKSIAAREFPIPEHIDIYLLNEPAEATEYSALEYVVREAEHEMKRLEDLVEELIVKEGPECPALEGLYEKIDEMDPSTFESRAAIILTGLGFNSVTIKKKTKDMSGGWRMRVALAKALFVKPTLLLLDDPTAHLDLAACVWLEEYLKRFDRILILVSHSQDFLNGVCTNMIDMRLKLLTTYGGNYDSYVKTRAELETNQMKQYNKQQEEIAHIKKFIASAGTYANLVRQAKSRQKILDKMEADGLIQPVVPDKVFTFRFPEVEKLPPPVLAFDDMSFSYSGKPEDNLYEHLDIGIDMDSRVALVGPNGVGKSTLLKLFQGKLQPQTGRVIQHTHIKLGVYSQHSADQLDLTKSPLEFVRDKFANISQDYQYWRGQLGRYGLSGEAQTAQMATLSEGQRSRVVFALLALEGPNLILLDEPTNGLDLGTIDSLADAINAFNGGVVVVSHDFRLLDKVAKDIFVIENKTATRWNGSILDYKKSLASKVVL
B3: Ulp1 (C. albicans), endogenous (enzyme, UniProt Q5AEB5 1-351)
chain: MASVIYDEHKGYCVTNEPINKVNENEGIINNGLQTLPWDLYLPEETDDLSSASDNTSTSTPKPLTKQEKREAKQLKKINASRRRKLKREQELDNKGESKFPDFKPYLAKQELKALFSSIVKSTCQNSKADAKILQYHSIALYKSDLEHILPGEWLNDNNISLIYELIIQIFIKHGRKFSNQIQLLFPSLIQLLMHFPDDVESLLPVDELKSSKLIFLPINFIDEMDVDLEDANNGDHWSLGVLSLLDNTLYVYDSMQIDDDEISEIQLKKLVQKLQSCNTIVHGKLKVRHLKCDQQQNFDDCGVYVIMITCYLINQLLHQDEMSLDISRVKFNPLDARLHIMKLISRLIKE
B4: Rvb1 (C. albicans), endogenous (protein, UniProt Q5A0W7 1-458)
chain: MVQITEVKENQSSRESRTAAHTHIKGLGLNEQGIAKPIEGGFVGQNEAREACGIIVDLIKSKKMSGKAVLIAGPPATGKTALALAISQELGPKVPFCPIVGSELYSAEVKKTSALMENFRRAIGLRIKETKEVYEGEVIELTPEEAENPLGGYGKTISHVIVGLKSAKGTKTLRLDPVIYESIQKERVTIGDVIYIEANTGAVKRVGRSDAYATEFDLEAEEYVPLPKGEVHKKKEIVQDVTLHDLDVANARPQGGQDVLSMMGQLLKPKKTEITDKLRTEVNKVVSKYIEQGVAELVPGVLFIDEVNMLDMEIFTYLNRALESSIAPIVVLASNRGLTTVRGSDDGVKAPHGCPPDLIDRLLIVRTLPYNQEEIKTIIGKRASLEGLTLTDDALEKLSKQGLTTSLRYAVQLLTPAGVLSTTAGRSEITVQDIEECEFLFLDSRRSTKVLQETKTFL
B5: Rvb2 (C. albicans), endogenous (protein, UniProt Q5AGZ9 1-498)
chain: MATNTITTTKVTTTTTDVTGLSLIAAHSHISGLGLDDNLQPKENAQGMVGQLSARKAAGVILKMVEAGKIAGRAVLIAGPPSTGKTAIAMGLSQSLGNQVPFTALAASEVFSLELSKTEALTQAFRKSIGIKIKEETEIIEGEVVEIQIDRTITGGHKQGKLTIKTTDMETIYELGNKMIEGLTKEKVLAGDVISIDKASGKITKLGRSFTRARDYDAMGPETKFVQCPEGELQKRKEVVHTISLHEIDVINSRQQGFLALFSGDTGEIRPEVRDQINTKVAEWKEEGKAEIVPGVLFIDEVHMLDIECFSFINRALEDEFSPIVIMATNRGVSRIRGTDYKSPHGMPMDLLDRSITIHTTSYTADEIRTILSIRATEEEVELSGDALALLTKIGQETSLRYAANLISVSQQIALKKKNNTVDLQDIKRAYMLFLDSDRSVQYLEENADQYIDDYGRVTIGQESTDGSTQPQAKQQEVAQPEATQPQSQPEDDKMETD

molecular target: Hsp90^E36A-GFP (C-terminally GFP-tagged E36A trap mutant of C. albicans Hsp90) (C. albicans) (UniProt P46598); assay: affinity purification with mass spectrometry; single-step GFP-trap resin purification of Hsp90^E36A-GFP from C. albicans lysate; cells in YPD at 30°C untreated, with 8 μg/mL fluconazole or with 100 nM caspofungin; SAINTexpress against Eno1-GFP control, BFDR 2%

**Q.** For B1, which binding is on record?
**A.** binds

**Q.** For B2, which binding is on record?
**A.** binds

**Q.** With B3 as the binder, how does the binding read?
**A.** binds

**Q.** Which binding does the source give for B4 here?
**A.** binds

**Q.** B5 was tested. Which binding did it give?
**A.** binds
